PubChem BioAssay AID493246, Drosophila RNAi Screening Center, 2011
In all, the deposit lists about 21,000 reagents; shown is a random part of those that have a named target and a result. In the full data, 429 (2%) were called active. 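Values are raw and not normalised between plates; calls rest on per-plate z-scores that were not deposited.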 Not given: the amount of reagent, the time to read-out.

Aim: 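Identify essential fly genes by loss of cell viability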 (primary screen)
System: Drosophila Kc and S2R+ cells
Knock-down reagent: long dsRNA against Drosophila genes
Measurement: 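Cell number per well after knock-down, printed as raw plate values; calls were based on per-plate z-scores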
Reading the numbers: Kc cell number and S2R+ cell number: higher = more cells remaining
Rule for the call: 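Counted as a hit if cell number falls by a z-score of at least 3 within its plate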

INPP5E [DRSC09723] showed Kc cell number, rep 1 = 1.33e6; Kc cell number, rep 2 = 1.37e6; S2R+ cell number, rep 1 = 1.29e6; S2R+ cell number, rep 2 = 1.30e6; inactive.
CG14505 [DRSC06476] gave Kc cell number, rep 1 = 1.45e6; Kc cell number, rep 2 = 1.52e6; S2R+ cell number, rep 1 = 1.15e6; S2R+ cell number, rep 2 = 1.27e6; inactive.
Against deltaCOP [DRSC18760], the values are Kc cell number, rep 1 = 6.07e5; S2R+ cell number, rep 1 = 6.21e5; inactive.
DCP1 [DRSC04091] gave Kc cell number, rep 1 = 1.30e6; Kc cell number, rep 2 = 1.36e6; S2R+ cell number, rep 1 = 1.04e6; S2R+ cell number, rep 2 = 1.00e6; inactive.
With knock-down of Nop60B [DRSC04627] the results were Kc cell number, rep 1 = 1.26e6; Kc cell number, rep 2 = 1.32e6; S2R+ cell number, rep 1 = 1.12e6; S2R+ cell number, rep 2 = 1.22e6; inactive.
Knock-down of GstO2 [DRSC10691] gave: Kc cell number, rep 1 = 1.27e6; Kc cell number, rep 2 = 1.37e6; S2R+ cell number, rep 1 = 1.16e6; S2R+ cell number, rep 2 = 1.06e6; inactive.
For frm [DRSC09753], the values are Kc cell number, rep 1 = 1.47e6; Kc cell number, rep 2 = 1.55e6; S2R+ cell number, rep 1 = 1.40e6; S2R+ cell number, rep 2 = 1.28e6; inactive.

Limited to “Kc cell number, rep 1” (2 entries from above):
DCP1 [DRSC04091] = 1.30e6
Nop60B [DRSC04627] = 1.26e6

The results go on.
Depletion of twi [DRSC04720] came out at: Kc cell number, rep 1 = 1.60e6; Kc cell number, rep 2 = 1.64e6; S2R+ cell number, rep 1 = 1.18e6; S2R+ cell number, rep 2 = 1.59e6; inactive.
Knock-down of cnir [DRSC00499] came out at: Kc cell number, rep 1 = 1.70e6; Kc cell number, rep 2 = 1.68e6; S2R+ cell number, rep 1 = 1.14e6; S2R+ cell number, rep 2 = 1.29e6; inactive.
With knock-down of heca [DRSC16964], the screen gave Kc cell number, rep 1 = 1.52e6; Kc cell number, rep 2 = 1.54e6; S2R+ cell number, rep 1 = 8.53e5; S2R+ cell number, rep 2 = 9.27e5; inactive.
Mesh1 [DRSC14433] showed Kc cell number, rep 1 = 1.42e6; Kc cell number, rep 2 = 1.47e6; S2R+ cell number, rep 1 = 9.87e5; S2R+ cell number, rep 2 = 1.14e6; inactive.
Silencing of HDAC3 [DRSC12352] resulted in: Kc cell number, rep 1 = 1.63e6; Kc cell number, rep 2 = 1.71e6; S2R+ cell number, rep 1 = 1.29e6; S2R+ cell number, rep 2 = 1.35e6; inactive.
